According to the supplement of paper PMC10849652:
The list shows a part of the results.

Protein sequences, listed by entry. Tags and fused reporters are not part of them. Lines headed by an entry give the natural chain unless they say otherwise; changes in a name come on top.
UniProt Q9NPL8: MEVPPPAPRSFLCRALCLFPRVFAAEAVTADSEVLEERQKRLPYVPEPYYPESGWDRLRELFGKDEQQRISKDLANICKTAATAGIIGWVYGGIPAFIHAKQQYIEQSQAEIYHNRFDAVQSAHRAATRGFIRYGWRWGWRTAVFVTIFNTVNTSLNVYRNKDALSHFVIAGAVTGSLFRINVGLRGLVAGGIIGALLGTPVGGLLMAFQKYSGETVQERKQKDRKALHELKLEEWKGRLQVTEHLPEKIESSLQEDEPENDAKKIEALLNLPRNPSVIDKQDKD
UniProt Q96RS0: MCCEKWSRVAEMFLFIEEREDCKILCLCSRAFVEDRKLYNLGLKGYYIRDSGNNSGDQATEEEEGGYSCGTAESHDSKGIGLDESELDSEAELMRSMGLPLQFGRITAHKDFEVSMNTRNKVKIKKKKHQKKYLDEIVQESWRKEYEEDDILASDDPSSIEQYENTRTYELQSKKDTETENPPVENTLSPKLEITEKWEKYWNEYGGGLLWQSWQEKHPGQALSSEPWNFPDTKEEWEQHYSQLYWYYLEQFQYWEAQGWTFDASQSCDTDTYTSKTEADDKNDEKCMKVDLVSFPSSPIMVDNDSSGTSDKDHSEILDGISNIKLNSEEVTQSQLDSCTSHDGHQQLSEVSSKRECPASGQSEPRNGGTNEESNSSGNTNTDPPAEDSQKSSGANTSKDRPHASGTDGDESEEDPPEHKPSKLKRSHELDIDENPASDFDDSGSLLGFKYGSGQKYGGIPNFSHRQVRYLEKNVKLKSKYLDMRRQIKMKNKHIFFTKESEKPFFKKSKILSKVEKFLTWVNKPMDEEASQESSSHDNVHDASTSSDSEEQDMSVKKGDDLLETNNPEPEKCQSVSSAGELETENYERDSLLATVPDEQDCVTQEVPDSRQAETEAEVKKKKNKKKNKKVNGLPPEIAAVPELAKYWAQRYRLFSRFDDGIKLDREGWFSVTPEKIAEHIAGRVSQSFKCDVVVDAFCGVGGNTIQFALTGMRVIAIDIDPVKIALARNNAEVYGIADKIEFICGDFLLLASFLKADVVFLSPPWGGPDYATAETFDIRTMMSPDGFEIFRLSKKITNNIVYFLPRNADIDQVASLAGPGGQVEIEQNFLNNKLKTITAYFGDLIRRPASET
UniProt Q8WUA7: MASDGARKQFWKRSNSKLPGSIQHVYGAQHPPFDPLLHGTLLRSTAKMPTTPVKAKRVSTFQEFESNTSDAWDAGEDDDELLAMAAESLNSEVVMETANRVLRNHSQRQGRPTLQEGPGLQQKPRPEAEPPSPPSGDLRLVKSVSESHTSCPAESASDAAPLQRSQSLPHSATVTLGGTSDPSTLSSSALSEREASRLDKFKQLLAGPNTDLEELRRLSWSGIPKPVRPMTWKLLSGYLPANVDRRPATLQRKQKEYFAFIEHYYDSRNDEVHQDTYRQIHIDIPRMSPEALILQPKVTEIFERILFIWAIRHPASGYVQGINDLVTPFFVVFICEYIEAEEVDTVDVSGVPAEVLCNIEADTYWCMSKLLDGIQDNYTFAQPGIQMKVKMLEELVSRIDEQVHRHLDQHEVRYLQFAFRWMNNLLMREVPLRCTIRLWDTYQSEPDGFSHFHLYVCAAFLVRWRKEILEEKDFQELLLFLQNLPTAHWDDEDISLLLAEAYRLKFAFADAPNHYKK
UniProt Q9Y5J9: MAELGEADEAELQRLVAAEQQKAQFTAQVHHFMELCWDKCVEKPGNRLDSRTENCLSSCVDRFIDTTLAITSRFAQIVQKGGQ
UniProt P15923: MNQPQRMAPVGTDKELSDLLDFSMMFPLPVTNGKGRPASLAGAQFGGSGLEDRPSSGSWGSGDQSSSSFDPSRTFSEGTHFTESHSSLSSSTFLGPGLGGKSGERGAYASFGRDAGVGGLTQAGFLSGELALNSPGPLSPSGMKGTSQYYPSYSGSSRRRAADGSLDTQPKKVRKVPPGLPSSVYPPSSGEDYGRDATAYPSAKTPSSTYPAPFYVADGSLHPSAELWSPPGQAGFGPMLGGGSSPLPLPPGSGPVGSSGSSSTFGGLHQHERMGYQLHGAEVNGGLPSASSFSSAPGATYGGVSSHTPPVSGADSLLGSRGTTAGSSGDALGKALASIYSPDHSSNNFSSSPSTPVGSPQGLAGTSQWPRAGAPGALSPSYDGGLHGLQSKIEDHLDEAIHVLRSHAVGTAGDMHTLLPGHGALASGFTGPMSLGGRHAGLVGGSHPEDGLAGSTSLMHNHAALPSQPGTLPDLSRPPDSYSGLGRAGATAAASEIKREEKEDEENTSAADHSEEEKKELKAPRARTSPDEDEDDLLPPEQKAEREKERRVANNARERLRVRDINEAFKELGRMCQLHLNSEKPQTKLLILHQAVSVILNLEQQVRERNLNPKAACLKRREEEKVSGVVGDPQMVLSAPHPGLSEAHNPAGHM
UniProt Q9BZK7: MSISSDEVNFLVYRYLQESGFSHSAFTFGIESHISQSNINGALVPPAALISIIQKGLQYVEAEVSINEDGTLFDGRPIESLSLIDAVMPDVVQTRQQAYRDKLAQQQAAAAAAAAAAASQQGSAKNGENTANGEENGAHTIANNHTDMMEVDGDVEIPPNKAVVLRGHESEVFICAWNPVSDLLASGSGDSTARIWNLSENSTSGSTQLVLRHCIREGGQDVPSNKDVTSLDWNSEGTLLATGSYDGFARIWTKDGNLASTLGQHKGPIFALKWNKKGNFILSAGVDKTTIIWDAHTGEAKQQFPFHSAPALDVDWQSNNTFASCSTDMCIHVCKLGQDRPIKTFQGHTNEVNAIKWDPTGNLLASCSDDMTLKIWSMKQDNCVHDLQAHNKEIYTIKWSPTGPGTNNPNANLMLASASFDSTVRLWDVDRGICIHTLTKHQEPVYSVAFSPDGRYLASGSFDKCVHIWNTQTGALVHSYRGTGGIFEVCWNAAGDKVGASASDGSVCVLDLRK
UniProt Q8IYQ7: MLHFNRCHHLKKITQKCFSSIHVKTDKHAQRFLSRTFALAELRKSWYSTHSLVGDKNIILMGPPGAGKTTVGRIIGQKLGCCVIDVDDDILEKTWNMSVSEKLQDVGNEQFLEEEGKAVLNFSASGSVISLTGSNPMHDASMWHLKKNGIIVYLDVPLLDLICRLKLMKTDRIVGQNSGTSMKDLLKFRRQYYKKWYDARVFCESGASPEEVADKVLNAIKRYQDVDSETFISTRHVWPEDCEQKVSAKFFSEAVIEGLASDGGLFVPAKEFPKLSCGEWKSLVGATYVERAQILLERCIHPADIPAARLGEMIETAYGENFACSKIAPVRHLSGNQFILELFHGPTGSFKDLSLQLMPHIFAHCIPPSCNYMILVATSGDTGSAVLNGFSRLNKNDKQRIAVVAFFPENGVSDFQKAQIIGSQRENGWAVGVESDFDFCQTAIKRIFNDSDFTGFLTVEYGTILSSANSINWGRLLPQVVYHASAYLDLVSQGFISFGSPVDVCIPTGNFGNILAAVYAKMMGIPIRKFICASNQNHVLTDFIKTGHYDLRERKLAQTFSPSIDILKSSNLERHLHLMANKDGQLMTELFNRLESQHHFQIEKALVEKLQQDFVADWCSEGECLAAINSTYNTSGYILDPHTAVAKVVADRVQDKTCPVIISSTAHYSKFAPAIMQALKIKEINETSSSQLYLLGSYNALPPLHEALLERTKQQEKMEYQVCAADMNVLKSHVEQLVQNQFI
UniProt Q9Y4P3: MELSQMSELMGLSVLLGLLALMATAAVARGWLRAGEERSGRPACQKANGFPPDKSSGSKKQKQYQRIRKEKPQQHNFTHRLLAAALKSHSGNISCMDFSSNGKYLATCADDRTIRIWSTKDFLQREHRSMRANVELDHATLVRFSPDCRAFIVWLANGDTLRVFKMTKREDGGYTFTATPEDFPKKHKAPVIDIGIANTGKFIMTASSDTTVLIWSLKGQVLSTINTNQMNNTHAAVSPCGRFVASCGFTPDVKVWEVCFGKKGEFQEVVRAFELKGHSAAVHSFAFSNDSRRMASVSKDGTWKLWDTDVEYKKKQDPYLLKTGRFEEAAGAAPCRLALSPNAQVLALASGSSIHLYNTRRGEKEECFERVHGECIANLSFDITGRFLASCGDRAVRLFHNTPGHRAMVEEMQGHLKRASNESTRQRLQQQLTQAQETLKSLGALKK
UniProt Q9Y2W6: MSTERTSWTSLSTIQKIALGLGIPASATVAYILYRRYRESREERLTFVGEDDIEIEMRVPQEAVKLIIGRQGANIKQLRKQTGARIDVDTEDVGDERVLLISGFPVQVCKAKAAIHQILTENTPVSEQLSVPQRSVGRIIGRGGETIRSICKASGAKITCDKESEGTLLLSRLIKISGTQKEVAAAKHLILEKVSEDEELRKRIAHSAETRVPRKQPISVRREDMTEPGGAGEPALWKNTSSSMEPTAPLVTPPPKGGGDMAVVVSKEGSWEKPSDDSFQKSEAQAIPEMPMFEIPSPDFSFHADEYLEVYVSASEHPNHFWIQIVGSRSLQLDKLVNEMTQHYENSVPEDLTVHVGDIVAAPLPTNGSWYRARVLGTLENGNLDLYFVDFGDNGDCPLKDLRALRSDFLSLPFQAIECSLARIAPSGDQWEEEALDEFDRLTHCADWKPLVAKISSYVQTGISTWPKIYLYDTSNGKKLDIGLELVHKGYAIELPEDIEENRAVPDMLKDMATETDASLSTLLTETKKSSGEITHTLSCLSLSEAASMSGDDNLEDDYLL
UniProt Q9HA65: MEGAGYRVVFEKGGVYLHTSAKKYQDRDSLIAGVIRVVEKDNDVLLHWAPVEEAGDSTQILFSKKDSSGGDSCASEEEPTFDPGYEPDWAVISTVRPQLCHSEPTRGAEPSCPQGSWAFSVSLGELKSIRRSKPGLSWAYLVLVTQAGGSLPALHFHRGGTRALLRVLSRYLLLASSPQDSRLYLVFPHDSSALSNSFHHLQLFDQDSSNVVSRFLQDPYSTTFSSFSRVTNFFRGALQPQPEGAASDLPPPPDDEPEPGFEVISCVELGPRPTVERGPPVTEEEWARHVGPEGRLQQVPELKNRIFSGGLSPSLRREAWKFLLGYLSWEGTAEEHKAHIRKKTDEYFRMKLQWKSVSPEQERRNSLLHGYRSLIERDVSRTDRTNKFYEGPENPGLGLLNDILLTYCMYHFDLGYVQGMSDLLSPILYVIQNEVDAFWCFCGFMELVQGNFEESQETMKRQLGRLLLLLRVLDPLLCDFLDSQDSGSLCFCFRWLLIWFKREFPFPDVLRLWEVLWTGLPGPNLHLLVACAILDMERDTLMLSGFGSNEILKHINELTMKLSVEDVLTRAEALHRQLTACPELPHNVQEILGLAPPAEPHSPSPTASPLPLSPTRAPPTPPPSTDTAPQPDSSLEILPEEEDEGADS
UniProt Q8WVM0: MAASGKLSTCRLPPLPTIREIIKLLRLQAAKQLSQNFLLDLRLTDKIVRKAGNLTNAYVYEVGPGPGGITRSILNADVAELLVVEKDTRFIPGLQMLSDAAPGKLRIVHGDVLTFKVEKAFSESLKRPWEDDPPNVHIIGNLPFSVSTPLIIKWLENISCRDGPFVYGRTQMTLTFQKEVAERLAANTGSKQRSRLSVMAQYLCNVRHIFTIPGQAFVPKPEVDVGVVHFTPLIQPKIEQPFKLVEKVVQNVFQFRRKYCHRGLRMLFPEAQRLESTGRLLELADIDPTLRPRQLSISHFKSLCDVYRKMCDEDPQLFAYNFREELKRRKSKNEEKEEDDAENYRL
UniProt P31483: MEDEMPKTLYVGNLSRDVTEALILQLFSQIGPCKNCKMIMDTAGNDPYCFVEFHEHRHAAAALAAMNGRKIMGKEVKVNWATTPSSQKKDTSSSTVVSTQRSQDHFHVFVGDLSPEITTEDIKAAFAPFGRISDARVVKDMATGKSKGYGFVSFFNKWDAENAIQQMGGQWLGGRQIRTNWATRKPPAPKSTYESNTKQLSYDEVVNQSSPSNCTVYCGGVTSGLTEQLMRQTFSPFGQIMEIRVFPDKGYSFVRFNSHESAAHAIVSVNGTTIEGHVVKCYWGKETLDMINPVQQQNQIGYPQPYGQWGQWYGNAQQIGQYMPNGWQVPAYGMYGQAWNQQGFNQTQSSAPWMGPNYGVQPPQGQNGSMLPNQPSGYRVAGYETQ
UniProt O75347: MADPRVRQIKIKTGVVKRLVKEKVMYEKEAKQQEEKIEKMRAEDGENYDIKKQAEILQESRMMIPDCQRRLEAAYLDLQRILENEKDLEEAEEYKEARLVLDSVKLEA
UniProt Q3ZCQ8: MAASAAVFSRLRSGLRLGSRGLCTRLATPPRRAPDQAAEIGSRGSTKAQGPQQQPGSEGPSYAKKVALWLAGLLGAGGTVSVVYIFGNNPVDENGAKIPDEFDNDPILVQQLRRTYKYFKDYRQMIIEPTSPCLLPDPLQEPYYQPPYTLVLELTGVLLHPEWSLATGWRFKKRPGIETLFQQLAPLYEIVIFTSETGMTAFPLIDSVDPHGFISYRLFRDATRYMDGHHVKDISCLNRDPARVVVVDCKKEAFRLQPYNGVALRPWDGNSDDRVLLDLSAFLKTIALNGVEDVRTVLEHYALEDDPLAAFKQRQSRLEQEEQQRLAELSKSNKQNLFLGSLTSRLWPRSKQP

Experiments:
Assay in all cases: log2 fold change, soluble protein after heating vs DMSO (PISA); higher = thermal stabilisation; K562 cells, 10 uM, 30 min; active = over 0.2 and 3.5 SD of the protein, either way, in both replicates (recomputed)
[1] = compound: CN1CCN(CCOc2cc(OC3CCOCC3)c3c(Nc4c(Cl)ccc5c4OCO5)ncnc3c2)CC1 [saracatinib]
Method in brief: (§1)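 Soluble protein was quantified by TMTpro 16plex LC-MS/MS after channel sums were equalised. It was obtained as the supernatant after 21,000xg for 90 min from pooled aliquots of K562 cells (2×10^6 cells/mL, 10 μM compound, 30 min) heated for 3 min across 48°C-58°C and extracted in PBS with 0.5% NP-40 at 4°C. Thermal stability values are relative to control samples and come from duplicates. They are given as log2 fold changes.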

[2] = compound: CN1CCN(c2nc(C3=C(c4c[nH]c5ccccc45)C(=O)NC3=O)c3ccccc3n2)CC1 [sotrastaurin]
Method in brief: as §1

[3] = compound: CN1CC[C@H](c2c(O)cc(O)c3c(=O)cc(-c4ccccc4Cl)oc23)[C@H](O)C1 [alvocidib]
Method in brief: as §1

[4] = compound: CN1CCc2c(c3ccccc3n2Cc2ccc(C(=O)NO)cc2)C1 [Tubastatin A]
Method in brief: as §1

[5] = compound: CNC(=O)C1=CC=CC=C1NC2=NC(=NC=C2Cl)NC3=C(C=C(C=C3)N4CCOCC4)OC
Method in brief: as §1

[6] = compound: CNC(=O)c1ccc(Nc2ncc(C(F)(F)F)c(NCc3nccnc3N(C)S(C)(=O)=O)n2)cc1 [defactinib]
Method in brief: as §1

[7] = compound: CNCc1ccc(-c2[nH]c3cc(F)cc4c3c2CCNC4=O)cc1 [rucaparib]
Method in brief: as §1

[8] = compound: CNc1nc(-c2ccc3c(N)n[nH]c3c2)cc(N2C[C@@H](C(=O)NC3CCCCC3)CC[C@H]2C)n1
Method in brief: as §1

[9] = compound: COC(=O)N[C@@H](C)CNc1nccc(-c2cn(C(C)C)nc2-c2cc(Cl)cc(NS(C)(=O)=O)c2F)n1 [encorafenib]
Method in brief: as §1

[10] = compound: COC(=O)[C@H](CCSC)NC(=O)C1=C(C=C(C=C1)NC[C@H](CS)N)C2=CC=CC=C2
Method in brief: as §1

Measured: log2 fold change

TIMMDC1 (UniProt Q9NPL8)
inactive: [1] 0.068 | [2] -0.014 | [3] 0.055 | [4] -0.075 | [5] 0.013 | [6] 0.018 | [7] -0.036 | [8] -0.06 | [9] -0.016 | [10] 0.032

TCEA1 (UniProt P23193)
inactive: [1] -0.008 | [2] -0.028 | [3] -0.065 | [4] -0.021 | [5] -0.023 | [6] -0.028 | [7] -0.029 | [8] 0.028 | [9] -0.007 | [10] 0.007

TLCD1 (UniProt Q96CP7)
inactive: [1] -0.08 | [2] -0.004 | [3] -0.154 | [4] -0.017 | [5] 0 | [6] -0.154 | [7] -0.02 | [8] 0.042 | [9] 0.063 | [10] 0.031

TBL3 (UniProt Q12788)
inactive: [1] -0.042 | [2] 0.044 | [3] 0.033 | [4] 0.048 | [5] -0.007 | [6] 0.069 | [7] 0.198 | [8] 0.12 | [9] 0.112 | [10] -0.034

TBCE (UniProt Q15813)
inactive: [1] -0.066 | [2] -0.265 | [3] 0.02 | [4] 0.129 | [5] -0.012 | [6] -0.035 | [7] 0.331 | [8] 0.057 | [9] 0.131 | [10] -0.116

TGS1 (UniProt Q96RS0)
inactive: [1] -0.075 | [2] -0.028 | [3] -0.14 | [4] -0.094 | [5] -0.03 | [6] -0.225 | [7] 0.071 | [8] 0.14 | [9] 0.055 | [10] -0.004

THOC5 (UniProt Q13769)
inactive: [1] 0.038 | [2] -0.029 | [3] -0.044 | [4] -0.029 | [5] -0.028 | [6] -0.034 | [7] 0.024 | [8] -0.071 | [9] -0.002 | [10] 0.049

TBCC (UniProt Q15814)
inactive: [1] 0.003 | [2] -0.008 | [3] -0.098 | [4] 0.007 | [5] -0.004 | [6] -0.063 | [7] -0.045 | [8] -0.048 | [9] -0.001 | [10] 0.017

TKT, A0A0B4J1R6
inactive: [1] 0.036 | [2] 0.142 | [3] 0.052 | [4] 0.096 | [5] -0.123 | [6] 0.002 | [7] -0.386 | [8] -0.065 | [9] 0.155 | [10] 0.043

TICAM2 isoform 2 (UniProt Q86XR7)
inactive: [1] 0.024 | [2] 0.015 | [3] 0.022 | [4] -0.013 | [5] -0.049 | [6] 0.017 | [7] 0.01 | [8] -0.033 | [9] 0.007 | [10] -0.014

TBC1D22A (UniProt Q8WUA7)
inactive: [1] 0.006 | [2] -0.025 | [3] -0.016 | [4] 0.029 | [5] -0.044 | [6] -0.046 | [7] -0.046 | [8] -0.06 | [9] -0.004 | [10] -0.053

TIMM8B (UniProt Q9Y5J9)
inactive: [1] -0.025 | [2] 0.142 | [3] -0.099 | [4] 0.015 | [5] 0.064 | [6] -0.232 | [7] -0.035 | [8] -0.083 | [9] -0.056 | [10] 0.079

TCF3 (UniProt P15923)
inactive: [1] 0.014 | [2] -0.007 | [3] -0.005 | [4] 0.014 | [5] -0.04 | [6] -0.093 | [7] 0.078 | [8] -0.046 | [9] -0.04 | [10] -0.001

TBL1XR1 (UniProt Q9BZK7)
inactive: [1] 0.029 | [2] -0.006 | [3] -0.024 | [4] -0.01 | [5] -0.075 | [6] 0.006 | [7] -0.023 | [8] -0.066 | [9] 0.028 | [10] -0.002

TLCD4 (UniProt Q96MV1)
inactive: [1] 0.114 | [2] -0.068 | [3] 0.036 | [4] -0.005 | [5] 0.045 | [6] 0.011 | [7] -0.037 | [8] -0.054 | [9] 0.012 | [10] 0.019

TBC1D4 (UniProt O60343)
inactive: [1] 0.021 | [2] -0.041 | [3] -0.031 | [4] 0.025 | [5] -0.025 | [6] -0.061 | [7] -0.016 | [8] -0.026 | [9] 0.003 | [10] -0.017

TCF12 isoform 3 (UniProt Q99081)
inactive: [1] 0.028 | [2] -0.031 | [3] -0.126 | [4] 0.048 | [5] 0.042 | [6] -0.034 | [7] 0.057 | [8] 0.01 | [9] 0.029 | [10] -0.017

THNSL1 (UniProt Q8IYQ7)
inactive: [1] -0.005 | [2] -0.007 | [3] -0.104 | [4] -0.007 | [5] 0.056 | [6] -0.079 | [7] 0.011 | [8] -0.052 | [9] -0.016 | [10] -0.03

TBL2 (UniProt Q9Y4P3)
inactive: [1] -0.074 | [2] -0.009 | [3] 0.155 | [4] 0.035 | [5] 0.039 | [6] 0.172 | [7] 0.348 | [8] 0.088 | [9] 0.124 | [10] -0.002

TDRKH (UniProt Q9Y2W6)
inactive: [1] -0.04 | [2] -0.079 | [3] 0.005 | [4] 0.047 | [5] -0.053 | [6] -0.025 | [7] -0.038 | [8] 0.043 | [9] 0.073 | [10] -0.032

TBC1D17 (UniProt Q9HA65)
inactive: [1] -0.019 | [2] -0.036 | [3] -0.076 | [4] -0.021 | [5] -0.043 | [6] -0.206 | [7] -0.038 | [8] -0.027 | [9] 0.047 | [10] 0.032

TFB1M (UniProt Q8WVM0)
inactive: [1] -0.047 | [2] 0.185 | [3] 0.125 | [4] 0.088 | [5] 0.034 | [6] 0.197 | [7] 0.19 | [8] -0.026 | [9] 0.028 | [10] -0.105

TIA1 (UniProt P31483)
inactive: [1] 0.046 | [2] 0.002 | [3] -0.061 | [4] -0.034 | [5] -0.006 | [6] 0.09 | [7] 0.03 | [8] -0.01 | [9] -0.035 | [10] -0.003

TBCA (UniProt O75347)
inactive: [1] 0.023 | [2] 0.063 | [3] -0.002 | [4] -0.034 | [5] -0.001 | [6] -0.013 | [7] -0.01 | [8] 0 | [9] -0.038 | [10] 0.029

THUMPD3 (UniProt Q9BV44)
inactive: [1] 0 | [2] -0.054 | [3] -0.062 | [4] -0.045 | [5] -0.016 | [6] -0.088 | [7] 0.011 | [8] 0.019 | [9] -0.009 | [10] -0.028

TIMM23 (UniProt O14925)
inactive: [1] 0.143 | [2] 0.028 | [3] -0.008 | [4] -0.009 | [5] -0.018 | [6] -0.064 | [7] -0.007 | [8] -0.028 | [9] 0.003 | [10] 0.027

Two neighbouring entries out of the list so far, quoted:
TCEA1 (UniProt P23193)
inactive: [1] -0.008 | [2] -0.028 | [3] -0.065 | [4] -0.021 | [5] -0.023 | [6] -0.028 | [7] -0.029 | [8] 0.028 | [9] -0.007 | [10] 0.007

TLCD1 (UniProt Q96CP7)
inactive: [1] -0.08 | [2] -0.004 | [3] -0.154 | [4] -0.017 | [5] 0 | [6] -0.154 | [7] -0.02 | [8] 0.042 | [9] 0.063 | [10] 0.031

(continued)

TIMM50 isoform 2 (UniProt Q3ZCQ8)
inactive: [1] -0.028 | [2] 0.075 | [3] -0.042 | [4] 0.033 | [5] -0.016 | [6] -0.048 | [7] 0.008 | [8] 0.039 | [9] -0.013 | [10] -0.027

TET1 (UniProt Q8NFU7)
inactive: [1] -0.19 | [2] -0.033 | [3] 0.043 | [4] 0.308 | [5] -0.257 | [6] -0.036 | [7] -0.01 | [8] -0.054 | [9] -0.116 | [10] -0.068

THUMPD1 (UniProt Q9NXG2)
inactive: [1] 0.003 | [2] -0.006 | [3] -0.017 | [4] -0.029 | [5] 0 | [6] -0.022 | [7] -0.062 | [8] -0.064 | [9] 0.007 | [10] 0.022
